Substrate in the assay: 肌钙蛋白I (cTnI) 抗原 (UniProt P19429)
In words: sandwich ELISA on pooled cTnI clinical sample (22.7 ng/ml, two-fold dilutions), HRP-F12 detection.

This note sets out measurements from CN112679607A.

No constants are given. Whether binding was seen depends on the method and setting. Some results given as binding are weak or reduced against the parent protein; the word gives no strength.

B1: cTnI E13全长单抗 (E13 full-length monoclonal antibody) (antibody, V domains shown)
VH: EVQLQQSGPELVKPGASVKISCKASGYTFTDYNMHWLKQSHGKSLEWIGYIYPYSGGTAYNQKFKNKATLTADTSSSTAHMELRSLTSEDSSFYYCARHHDYDGGTFAYWGQGTLVTVSA
VL: DIQMTQTTSSLSASLGDRVTISCRASQDITNYLNWYQQKPDGTVKLLIYYTSRLHSGVPSRFSGSGSGPDYSLTISHLEHEDIATYFCQQGHTLPLTFGDGTTLEL
Take B1: the binding result is on record as “binds”.
